# Screen size: about 340,000 compounds; about 6,200 (1.8%) were called active. Inconclusive results, whose numbers are uncertain, are shown with a selection of clear calls. The call rests on the fitted dose curve; in most records, active means well fitted activation curve with a large enough effect; inconclusive means small, poorly fitted or top-dose-only effect; inactive means no such curve, though single readings can be large or run the other way. Where the call is inconclusive, the potency comes from a doubtful curve fit.
# Assay: A quantitative high throughput screen for small molecules that induce DNA re-replication in SW480 colon adenocarcinoma cells. Further: nearly all actives have a fitted effect of over 55% in size. On re-replication activation: % of control where 0% means no effect.
# Settings: Hoechst DNA content imaging, 48 h; re-replication activation: at 46.1 µM (top of the series) unless noted
# Procedure, shortened: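 Quantitative HTS format with DMSO vehicle controls; 48 hr drug incubation at 37 C, then 40 min Hoechst staining and scanning imager measurement at 405 nm excitation.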
# Potency means the concentration at half of the fitted maximal effect.
Structure (SMILES),Potency,re-replication activation
CCOc1ccc2c(c1)-c1c(ssc1=S)C(C)(C)N2C(=O)c1ccco1,active: 16.4 µM,
CN=C(Nc1ccc2c(c1)OCO2)SC1CC(=O)N(c2ccccc2)C1=O (centres undefined),,inactive: 0.357%
CCCOc1ccc(NC(=O)C2CC(=O)N(C)C(=Nc3cccc(OC)c3)S2)cc1 (centres undefined),"inconclusive: 18.4 µM [activator, single point]",
O=C(Nc1ccc2ccccc2c1)[C@@H]1C[C@H]1[C@@H](NP(=O)(c1ccccc1)c1ccccc1)c1ccccc1,"inconclusive: 20.6 µM [activator, partial curve, poor fit]",
N#CC1c2ccccc2C=CN1C(=O)N(c1ccccc1)c1ccccc1 (centres undefined),"inconclusive: 18.4 µM [activator, single point]",
Cc1ccccc1NC(=O)CSc1nc2ccccc2o1,,inactive: -2.96%
O=C(CSc1ncnc2[nH]ncc12)Nc1nc(-c2ccc(F)c(F)c2)cs1,"inconclusive: 0.291 µM [activator, partial curve, poor fit]",
COc1ccc2c(c1)CC/C(=C/c1ccccn1)C2=O,"inconclusive: 18.4 µM [activator, single point]",
COc1ccc(N2CCN(c3c(S(=O)(=O)c4ccccc4)cnc4ccc(OC)cc34)CC2)cc1,,inactive: -0.923%
CC(=O)N1CCc2cc(C(=O)CN3CCN(C(=O)c4ccco4)CC3)ccc21,"inconclusive: 29.1 µM [activator, single point]",
O=c1n(Cc2ccccc2F)c2ccccc2n1Cc1ccccc1F,"inconclusive: 32.6 µM [activator, partial curve, poor fit]",
COc1ccc(CNC2CCCCC2)cc1,,inactive: -14.2%
CN1CCN(c2ccc(CNS(=O)(=O)c3ccccc3)cc2)CC1,"inconclusive: 8.2 µM [activator, partial curve, poor fit]",
CCCCCn1c(=O)[nH]c2cc(C(=O)NCCCN(C)Cc3ccccc3)ccc2c1=O,"inconclusive: 20.6 µM [activator, single point]",
CNc1nc2[nH]c(=O)c3c(c2s1)OC(N)=C(C#N)C3c1ccccc1 (centres undefined),"inconclusive: 6.51 µM [activator, single point]",
COCCn1c(SCc2nc3sc(C(=O)OC)c(C)c3c(=O)[nH]2)nc2ccccc21,,inactive: -1.51%
COc1ccc(OC)c(S(=O)(=O)N2CCC(C(=O)Nc3ccccc3)CC2)c1,"inconclusive: 20.6 µM [activator, partial curve, poor fit]",
COc1ccc(/C=C/C(=O)Oc2ccc(C)cc2)cc1,"inconclusive: 11.6 µM [activator, single point]",
O=C(NCc1ccccn1)c1cc2c(ccc3ccccc32)oc1=O,"inconclusive: 0.366 µM [activator, full curve, poor fit]",

# Reprinted at random: two entries already listed.
Structure (SMILES),Potency,re-replication activation
CCCOc1ccc(NC(=O)C2CC(=O)N(C)C(=Nc3cccc(OC)c3)S2)cc1 (centres undefined),"inconclusive: 18.4 µM [activator, single point]",
COc1ccc(CNC2CCCCC2)cc1,,inactive: -14.2%
